The results in this text go back to publication PMC11297322, “MEILB2-BRME1 forms a V-shaped DNA clamp upon BRCA2-binding in meiotic recombination” (Nature Communications, 2023).

No constants are given. Whether binding was seen depends on the method and setting. Binding seen in cells or lysates may run through a third protein. Some results given as binding are weak or reduced against the parent protein; the word gives no strength. Tags and fused reporters may be left off the sequences shown.

The target of this test is T1, MBP–MEILB2α (mouse MEILB2 22–81 with N-terminal MBP) (mouse) (UniProt Q9D4G2).
T1 sequence: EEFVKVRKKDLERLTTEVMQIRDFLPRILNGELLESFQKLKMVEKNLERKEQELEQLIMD
Briefly: pull-down; amylose pulldown of His-BRME1MBD with MBP–MEILB2α following recombinant co-expression; amylose elution fractions on SDS–PAGE.

B1: BRME1MBD (mouse BRME1 amino-acids 540–578) (domain or fragment, UniProt Q6DIA7 540-578, looked up)
chain: RMQDATDTVRGLVVELSGLNRLIMSTHRDLEAFKRRKTK
notes: source: E. coli BL21 (DE3), purified in complex with MEILB2 (Ni-NTA, amylose, ion exchange, TEV cleavage, SEC); not shown: His6, N-terminal, cleaved
With B1, the binding result was “binds”.
